Laboratory results taken from PMC5017703, “The Neurite Outgrowth Inhibitory Nogo-A-Δ20 Region Is an Intrinsically Disordered Segment Harbouring Three Stretches with Helical Propensity” (PLoS ONE, 2016).
Results are given in words; binding and its absence hold for the method and conditions named.

How the values were obtained:
[1] = biological target: T1, Nogo-A-Δ20 (residues 544–725 of the rat Nogo-A sequence) (rat), Q9JK11; test: NMR titration; [15N,1H]-HSQC of 15N-labelled Nogo-A-Δ20 (30, 88 or 120 μM) in PBS; ECL2 added at 1:1 and 1:3 (pH 7.4 and 6.4; 6°C and 15°C); ECL3 added at 1:3 (pH 7.4, 6°C, with or without 5 mM TCEP or 4 mM ZnCl2); chemical shift differences and intensity ratios; both purified; conditions: remark: other sources report otherwise
T1 chain: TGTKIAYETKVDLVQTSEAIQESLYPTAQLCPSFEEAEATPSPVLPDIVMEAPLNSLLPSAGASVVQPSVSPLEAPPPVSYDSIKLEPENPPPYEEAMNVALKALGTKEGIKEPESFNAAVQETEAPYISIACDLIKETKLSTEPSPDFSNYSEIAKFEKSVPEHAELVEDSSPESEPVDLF

[2] = biological target: T1, Nogo-A-Δ20 (residues 544–725 of the rat …); test: condition: 10 μM Nogo-A-Δ20 in the cell, 150 μM ECL peptide in the syringe; ITC; ECL peptide 150 μM in the syringe titrated into 10 μM Nogo-A-Δ20 in the cell, PBS pH 7.4, 25°C, MicroCal VP-ITC; both purified; conditions: remark: other sources report otherwise

binding [2]: no binding
B1: extracellular loop 3 (ECL3) of sphingosine 1-phosphate receptor 2 (S1PR2) (peptide)
peptide: SILLLDSTCPVRACPVLYK
binding [1]: no binding (tested: 1 to 3 ratio, 120 μM Nogo-A-Δ20)
